Measured values published in the supplement of paper PMC12819154, “High-throughput peptide-centric local stability assay extends protein–ligand identification to membrane proteins, tissues and bacteria” (Nature Structural & Molecular Biology, 2025).
This is one part of the list. Small differences around the control level are noise.

Amino acid sequences for entries named in this document (tags omitted). A change or cut given only in a name is not applied to a line headed by its entry.
UniProt Q80W21: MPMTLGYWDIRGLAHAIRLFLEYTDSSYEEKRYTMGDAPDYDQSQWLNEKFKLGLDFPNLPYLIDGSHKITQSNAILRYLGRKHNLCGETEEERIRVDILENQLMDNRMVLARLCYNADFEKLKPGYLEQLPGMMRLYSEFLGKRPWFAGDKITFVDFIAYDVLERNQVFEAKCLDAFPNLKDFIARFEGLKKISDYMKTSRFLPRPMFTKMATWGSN
UniProt Q80Y20: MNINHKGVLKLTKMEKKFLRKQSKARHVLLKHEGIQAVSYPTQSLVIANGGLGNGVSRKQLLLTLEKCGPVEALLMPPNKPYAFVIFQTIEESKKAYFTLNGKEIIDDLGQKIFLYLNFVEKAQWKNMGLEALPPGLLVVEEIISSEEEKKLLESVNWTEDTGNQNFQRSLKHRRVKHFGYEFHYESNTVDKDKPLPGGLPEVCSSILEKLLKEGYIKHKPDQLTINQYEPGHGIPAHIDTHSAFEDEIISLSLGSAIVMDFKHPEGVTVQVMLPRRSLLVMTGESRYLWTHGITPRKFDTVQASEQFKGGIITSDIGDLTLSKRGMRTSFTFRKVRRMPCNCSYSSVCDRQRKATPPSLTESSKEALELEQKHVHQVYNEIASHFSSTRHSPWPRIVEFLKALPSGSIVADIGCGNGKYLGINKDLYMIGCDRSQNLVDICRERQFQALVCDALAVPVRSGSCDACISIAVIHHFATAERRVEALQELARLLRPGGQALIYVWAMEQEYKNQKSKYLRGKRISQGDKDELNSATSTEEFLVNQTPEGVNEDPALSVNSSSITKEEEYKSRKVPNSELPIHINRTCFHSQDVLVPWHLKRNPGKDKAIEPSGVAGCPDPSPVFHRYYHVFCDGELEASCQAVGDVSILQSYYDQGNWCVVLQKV
UniProt Q8BHN3: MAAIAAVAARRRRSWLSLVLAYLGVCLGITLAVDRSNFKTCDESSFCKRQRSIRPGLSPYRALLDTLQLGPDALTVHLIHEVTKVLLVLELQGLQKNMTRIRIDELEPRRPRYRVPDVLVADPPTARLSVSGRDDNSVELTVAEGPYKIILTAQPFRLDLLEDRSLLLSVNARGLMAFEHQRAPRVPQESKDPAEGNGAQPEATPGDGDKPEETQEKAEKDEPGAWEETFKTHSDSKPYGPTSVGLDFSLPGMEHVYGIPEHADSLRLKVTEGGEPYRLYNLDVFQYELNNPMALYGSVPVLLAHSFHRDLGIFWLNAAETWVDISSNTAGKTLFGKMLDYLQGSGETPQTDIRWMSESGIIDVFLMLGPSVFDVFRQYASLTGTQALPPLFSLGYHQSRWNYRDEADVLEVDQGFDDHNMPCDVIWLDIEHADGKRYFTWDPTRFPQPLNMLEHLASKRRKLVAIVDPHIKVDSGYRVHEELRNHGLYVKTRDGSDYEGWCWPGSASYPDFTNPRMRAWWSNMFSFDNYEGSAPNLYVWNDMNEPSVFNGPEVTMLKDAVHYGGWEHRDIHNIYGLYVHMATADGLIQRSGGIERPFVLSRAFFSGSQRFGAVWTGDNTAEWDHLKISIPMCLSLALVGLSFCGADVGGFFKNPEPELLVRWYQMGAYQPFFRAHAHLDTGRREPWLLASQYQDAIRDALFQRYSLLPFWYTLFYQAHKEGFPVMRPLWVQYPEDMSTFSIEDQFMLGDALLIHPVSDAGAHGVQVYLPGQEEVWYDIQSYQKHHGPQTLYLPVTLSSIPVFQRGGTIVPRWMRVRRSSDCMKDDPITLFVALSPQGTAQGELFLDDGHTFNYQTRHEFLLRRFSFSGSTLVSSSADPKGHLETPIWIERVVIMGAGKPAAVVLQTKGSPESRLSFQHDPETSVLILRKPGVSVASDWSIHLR
UniProt Q80VY9: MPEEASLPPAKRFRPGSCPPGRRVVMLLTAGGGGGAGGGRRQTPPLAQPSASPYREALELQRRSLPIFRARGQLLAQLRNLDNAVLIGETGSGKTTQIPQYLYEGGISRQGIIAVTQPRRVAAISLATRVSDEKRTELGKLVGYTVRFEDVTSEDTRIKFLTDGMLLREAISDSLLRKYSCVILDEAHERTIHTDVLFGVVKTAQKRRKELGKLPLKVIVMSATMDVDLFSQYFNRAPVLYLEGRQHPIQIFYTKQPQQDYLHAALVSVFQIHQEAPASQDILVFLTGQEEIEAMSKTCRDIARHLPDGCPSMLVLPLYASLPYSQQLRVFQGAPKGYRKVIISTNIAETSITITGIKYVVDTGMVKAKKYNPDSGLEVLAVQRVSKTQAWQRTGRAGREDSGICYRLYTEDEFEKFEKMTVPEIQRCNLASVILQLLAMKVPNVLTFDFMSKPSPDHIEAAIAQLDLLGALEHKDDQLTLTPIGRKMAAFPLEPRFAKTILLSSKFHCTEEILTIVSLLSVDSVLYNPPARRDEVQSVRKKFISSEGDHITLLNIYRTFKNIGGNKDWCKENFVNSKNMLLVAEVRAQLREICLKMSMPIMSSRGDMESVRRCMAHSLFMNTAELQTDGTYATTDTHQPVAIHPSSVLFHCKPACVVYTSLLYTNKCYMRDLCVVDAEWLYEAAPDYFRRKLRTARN
UniProt Q8BGN9: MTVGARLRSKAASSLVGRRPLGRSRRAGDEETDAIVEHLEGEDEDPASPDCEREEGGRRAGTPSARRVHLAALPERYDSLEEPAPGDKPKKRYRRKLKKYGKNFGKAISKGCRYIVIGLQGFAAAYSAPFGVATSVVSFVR

Each target was assayed with CN[C@@H]1C[C@H]2O[C@@](C)([C@@H]1OC)n1c3ccccc3c3c4c(c5c6ccccc6n2c5c31)C(=O)NC4 [staurosporine] (assay: log2 fold change of tryptic peptide abundance, ligand vs vehicle (limited proteolysis) (log2 ratio); higher = more trypsin-susceptible (destabilized)). Conditions: ligand concentration: 20 uM; sample: mouse liver crude lysate; replicate design: treated separately.
For “UniProt Q80W21 (peptide sequence: LCYNADFEK, peptide start residue: 114)”, the log2 fold change was -0.466.
“UniProt Q80Y20 (peptide sequence: KVPNSELPIHINR, peptide start residue: 572)” was tested, and the log2 fold change was 0.28.
“UniProt Q8BHN3 (peptide sequence: DAVHYGGWEHR, peptide start residue: 559)” showed a log2 fold change of -0.596.
Target “UniProt Q80VY9 (peptide sequence: KYSCVILDEAHER, peptide start residue: 178)” has a log2 fold change of -0.396.
Target “UniProt Q8BGN9 (peptide sequence: VHLAALPERYDSLEEPAPGDKPK, peptide start residue: 68)” has a log2 fold change of -0.0533.
